# Construct, isoform or probe ends are uncertain for at least one entry. For some of these results: A weaker result is weaker than the reference pair of the same experiment. Where a protein sequence is shown, tags need not be part of it. For some of these results: At least one verdict was read from the data and is not stated in words by the source.
# What was measured:
# AlkB (Escherichia coli) [1] = target: T1, AlkB (Escherichia coli) (UniProt P05050); test: Trp fluorescence equilibrium titration (micromolar range, value only in figure); settings: 40 uM Fe(II), 50 mM HEPES-KOH pH 7.5, 50 mM KCl, 10 mM MgCl2, 40 uM Fe(II), 1 mM aKG, 2 mM ascorbate (composition as given for the anaerobic runs), stopped-flow at 37 C, recombinant protein
# T1 sequence (looked up): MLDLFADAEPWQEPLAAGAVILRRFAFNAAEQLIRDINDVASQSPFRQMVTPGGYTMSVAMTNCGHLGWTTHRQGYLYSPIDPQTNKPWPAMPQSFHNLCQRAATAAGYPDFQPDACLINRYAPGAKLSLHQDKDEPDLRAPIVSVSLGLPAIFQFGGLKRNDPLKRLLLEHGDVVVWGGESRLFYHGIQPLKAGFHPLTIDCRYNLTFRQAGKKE
# AlkB (Escherichia coli) [2] = target: T1, AlkB (Escherichia coli); test: Trp fluorescence equilibrium titration (micromolar range, value only in figure; weakest); settings: 40 uM Fe(II), 1 mM aKG, 50 mM HEPES-KOH pH 7.5, 50 mM KCl, 10 mM MgCl2, 40 uM Fe(II), 2 mM ascorbate (composition as given for the anaerobic runs), stopped-flow at 37 C, recombinant protein, residues 1-216, protein details: His6
# AlkB (Escherichia coli) [3] = target: T1, AlkB (Escherichia coli); test: stopped-flow Trp fluorescence; K1 one order of magnitude lower than for ssODN; settings: Fe(II), aKG; N1-methyladenine at position 6 of strand 1; 50 mM HEPES-KOH pH 7.5, 50 mM KCl, 10 mM MgCl2, 40 uM Fe(II), 1 mM aKG, 2 mM ascorbate (composition as given for the anaerobic runs); stopped-flow at 37 C; recombinant protein; residues 1-216; protein details: His6
sequence,measurement,setting,value
ACAGGATCCGGCATA (double strand) [ds15A],binding result,"AlkB (Escherichia coli) [1]; 2 mM succinate, residues 1-216, protein details: His6",binds
same,binding result,AlkB (Escherichia coli) [2],binds more weakly
ACAGGATCCGGCATA (double strand) [ds15m1A],binding result,AlkB (Escherichia coli) [3],binds more weakly
ACAGGATCCGGCATA [ss15A],binding result,"AlkB (Escherichia coli) [1]; residues 1-216, protein details: His6, single-stranded DNA",binds

# Source: article PMC6943663, “A Single-Turnover Kinetic Study of DNA Demethylation Catalyzed by Fe(II)/α-Ketoglutarate-Dependent Dioxygenase AlkB”
